# Measurements reported in PubChem BioAssay AID504774 (Drosophila RNAi Screening Center, 2011).
# Aim: 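Knock-downs that shift viability of MMS-exposed cells relative to untreated ones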 (primary screen)
# System: Drosophila Kc167 cells
# Knock-down reagent: long dsRNA against Drosophila genes, about 0.25 µg dsRNA per well
# Timing: about 6 days: 3 days knock-down, then 3 days with or without MMS
# Treatment: methyl methanesulphonate 0.004% (w/v) for 3 days after knock-down
# Read-out: 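ATP-dependent luminescence as a measure of live cells in MMS-exposed wells, quantile normalised within each plate, with replicate values also given as a mean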
# Reading the numbers: mean viability with MMS: higher = more surviving cells after MMS
# The screen tested about 23,000 reagents; this is an unselected part of those with a known target gene and a result. 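Values are quantile-normalised luminescence on an arbitrary scale; higher means more cells surviving MMS.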 The numbers tell different reagents against one gene apart. Not all columns of the deposit are shown.
The opening 2 records as a preview:
Target gene,reagent,mean viability with MMS
CG14752,1,3.58e6
Cec-Psi1 (Cecropin pseudogene 1),1,3.60e6

The list itself, repeating the preview:
Target gene,reagent,mean viability with MMS
CG14752,1,3.58e6
Cec-Psi1 (Cecropin pseudogene 1),1,3.60e6
CG7203,1,3.64e6
CG1394,1,3.22e6
mora (morgana),1,3.75e6
dsb (debris buster),1,3.24e6
dsb (debris buster),2,3.57e6
CG17776,1,3.66e6
TTLL1A (Tubulin tyrosine ligase-like 1A),1,3.66e6
CheA29a (Chemosensory protein A 29a),1,3.67e6
CG11737,1,3.58e6
yem (yemanuclein),1,3.55e6
yem (yemanuclein),2,3.40e6
CG11000,1,3.72e6
CG30395,1,3.60e6
Cht5 (Chitinase 5),1,3.43e6
fal (falten),1,3.42e6
pk (prickle),1,3.69e6
pk (prickle),2,3.57e6
pk (prickle),3,3.57e6
CG30161,1,3.54e6
CG43999,1,3.62e6
CG17470,1,3.23e6
CG15864,1,3.40e6
CG3520,1,3.67e6
sra (sarah),1,3.59e6
Chd3,1,3.29e6
NtR,1,3.46e6
l(2)k14505 (lethal (2) k14505),1,3.56e6
CG7763,1,3.60e6
ebd1 (earthbound 1),1,3.41e6
CG3355,1,3.49e6
Cad89D (Cadherin 89D),1,3.24e6
CG18661,1,3.52e6
MESR6 (Misexpression suppressor of ras 6),1,3.55e6
beta'COP (Coat Protein (coatomer) beta'),1,2.97e6
CG13870,1,3.33e6
Cpr62Bc (Cuticular protein 62Bc),1,3.56e6
CG43689,1,2.74e6
CG43689,2,3.57e6
CG43689,3,2.78e6
IKKbeta (I-kappaB kinase beta),1,3.75e6
ddbt (deadbeat),1,3.88e6
alpha-Est5 (alpha-Esterase-5),1,3.46e6
BubR1 (Bub1-related kinase),1,3.32e6
"AP-1gamma (Adaptor Protein complex 1, gamma subunit)",1,3.44e6
CG17195,1,3.57e6
gcl (germ cell-less),1,3.41e6
CG31516,1,3.56e6
CG11854,1,3.46e6
jp (junctophilin),1,3.76e6
jp (junctophilin),2,3.45e6
PPP4R2r (Protein phosphatase 4 regulatory subunit 2-related protein),1,3.66e6
PPP4R2r (Protein phosphatase 4 regulatory subunit 2-related protein),2,3.67e6
CG6236,1,3.47e6
CG5506,1,3.60e6
lncRNA:CR32661 (long non-coding RNA:CR32661),1,3.55e6
SrpRalpha (Signal recognition particle receptor alpha),1,3.50e6
FMRFaR (FMRFamide Receptor),1,3.58e6
sced (scrambled),1,3.50e6
Dark (Death-associated APAF1-related killer),1,3.49e6
betaTub65B (beta-Tubulin at 65B),1,3.69e6
CG31760,1,3.61e6
CG7556,1,3.66e6
Vrp1 (Verprolin 1),1,3.43e6
CG30349,1,3.46e6
CG30349,2,3.40e6
Shal (Shaker cognate l),1,3.46e6
Shal (Shaker cognate l),2,3.56e6
Arf4 (ADP ribosylation factor 4),1,3.66e6
CG17724,1,3.32e6
Bap55 (Brahma associated protein 55kD),1,3.32e6
mRpL27 (mitochondrial ribosomal protein L27),1,3.67e6
CG6462,1,3.64e6
Sod2 (Superoxide dismutase 2 (Mn)),1,3.54e6
dsd (distracted),1,3.59e6
dsd (distracted),2,3.63e6
TpnC47D (Troponin C at 47D),1,3.41e6
Osi14 (Osiris 14),1,3.29e6
aqz (aaquetzalli),1,3.60e6
Cdc27 (Cell division cycle 27),1,3.16e6
CG14671,1,3.66e6
Cyp6a15Psi (pseudo),1,3.48e6
CG43897,1,3.15e6
CG43897,2,3.57e6
CG43897,3,2.90e6
Trp1 (Translocation protein 1),1,3.42e6
